Article PMC6428754, “Peptidoglycan Remodeling Enables Escherichia coli To Survive Severe Outer Membrane Assembly Defect” (mBio, 2019)
These are yes or no findings as the source states them, for the method shown. Some binding calls cover weakened binding; strength is not graded here. Sequences can lack the tags named with a protein.

What was measured:
[1] = biological target: T1, oligohistidine-tagged PBP1A (E. coli) (UniProt P02918); experiment: MST; microscale thermophoresis curves; means ± SD from three independent experiments; which partner was labelled is not told (Text S1); both purified
T1 sequence: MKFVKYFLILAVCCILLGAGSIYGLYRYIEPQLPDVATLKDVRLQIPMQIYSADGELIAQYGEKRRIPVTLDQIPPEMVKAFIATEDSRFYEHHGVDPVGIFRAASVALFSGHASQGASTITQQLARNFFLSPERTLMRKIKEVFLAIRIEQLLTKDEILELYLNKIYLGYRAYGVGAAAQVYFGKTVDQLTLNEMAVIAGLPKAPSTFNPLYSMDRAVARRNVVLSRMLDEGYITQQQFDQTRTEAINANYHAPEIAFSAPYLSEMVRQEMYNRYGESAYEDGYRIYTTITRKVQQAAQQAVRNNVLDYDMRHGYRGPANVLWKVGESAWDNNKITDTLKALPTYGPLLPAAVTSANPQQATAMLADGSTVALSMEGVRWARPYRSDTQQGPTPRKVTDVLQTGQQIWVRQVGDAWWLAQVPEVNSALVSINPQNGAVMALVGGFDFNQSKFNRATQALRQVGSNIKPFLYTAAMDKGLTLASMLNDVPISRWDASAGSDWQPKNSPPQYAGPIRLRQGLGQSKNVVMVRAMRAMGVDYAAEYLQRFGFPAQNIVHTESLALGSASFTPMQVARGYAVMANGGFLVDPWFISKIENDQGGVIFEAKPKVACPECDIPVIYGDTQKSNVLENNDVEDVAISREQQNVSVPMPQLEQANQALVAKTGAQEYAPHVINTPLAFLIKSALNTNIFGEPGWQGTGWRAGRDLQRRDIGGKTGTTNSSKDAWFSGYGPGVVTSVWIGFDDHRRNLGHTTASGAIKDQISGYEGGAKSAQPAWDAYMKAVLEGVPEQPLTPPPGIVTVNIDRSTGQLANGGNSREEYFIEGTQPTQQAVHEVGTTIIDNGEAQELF

[2] = biological target: T2, oligohistidine-tagged PBP1B (E. coli, UniProt P02919 1-844); experiment: pull-down; purified oligohistidine-tagged protein mixed with untagged LdtD, binding to Ni2+-NTA beads, Coomassie-stained SDS-PAGE of applied and eluted fractions; both purified
T2 construct: PBP1B, bifunctional peptidoglycan synthase (glycosyltransferase and DD-transpeptidase) of Escherichia coli; source: purified
T2 sequence (looked up): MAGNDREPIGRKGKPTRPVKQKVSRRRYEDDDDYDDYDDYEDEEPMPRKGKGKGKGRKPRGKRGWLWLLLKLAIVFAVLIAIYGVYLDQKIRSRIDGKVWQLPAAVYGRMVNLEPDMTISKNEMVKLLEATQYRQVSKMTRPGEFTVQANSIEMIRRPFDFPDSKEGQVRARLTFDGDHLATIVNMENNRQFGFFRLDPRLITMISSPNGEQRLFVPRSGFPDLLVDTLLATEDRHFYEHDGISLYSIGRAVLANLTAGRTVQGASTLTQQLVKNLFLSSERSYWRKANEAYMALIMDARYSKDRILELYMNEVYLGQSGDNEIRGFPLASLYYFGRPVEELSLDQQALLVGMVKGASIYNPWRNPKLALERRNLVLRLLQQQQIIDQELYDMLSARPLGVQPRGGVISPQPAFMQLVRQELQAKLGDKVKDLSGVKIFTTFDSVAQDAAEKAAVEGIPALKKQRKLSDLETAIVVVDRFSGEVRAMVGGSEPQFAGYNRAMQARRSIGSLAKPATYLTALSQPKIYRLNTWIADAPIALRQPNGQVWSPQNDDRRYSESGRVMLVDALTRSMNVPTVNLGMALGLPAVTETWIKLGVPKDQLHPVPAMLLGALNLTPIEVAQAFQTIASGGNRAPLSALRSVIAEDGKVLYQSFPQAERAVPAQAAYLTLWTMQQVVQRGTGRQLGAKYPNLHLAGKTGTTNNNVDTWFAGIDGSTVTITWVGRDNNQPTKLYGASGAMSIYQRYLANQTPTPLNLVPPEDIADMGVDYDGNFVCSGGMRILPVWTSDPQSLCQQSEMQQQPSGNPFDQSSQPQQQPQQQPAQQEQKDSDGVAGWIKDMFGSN

[3] = biological target: T3, oligohistidine-tagged LpoB (E. coli) (UniProt P0AB38); experiment: as above
T3 sequence: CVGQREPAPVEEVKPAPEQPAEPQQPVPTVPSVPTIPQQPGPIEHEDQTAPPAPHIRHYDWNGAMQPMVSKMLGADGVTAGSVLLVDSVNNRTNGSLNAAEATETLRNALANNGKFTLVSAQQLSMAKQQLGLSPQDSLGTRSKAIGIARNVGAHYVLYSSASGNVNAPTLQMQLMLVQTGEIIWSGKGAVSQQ

[4] = biological target: T1, oligohistidine-tagged PBP1A (E. coli); experiment: as above

binding [1]: no binding
binding [2]: binds
binding [3]: no binding
binding [4]: no binding
B1: LdtD (LD-transpeptidase, formerly YcbB), untagged (enzyme, E. coli, UniProt P22525 1-615, looked up)
chain: MLLNMMCGRQLSAISLCLAVTFAPLFNAQADEPEVIPGDSPVAVSEQGEALPQAQATAIMAGIQPLPEGAAEKARTQIESQLPAGYKPVYLNQLQLLYAARDMQPMWENRDAVKAFQQQLAEVAIAGFQPQFNKWVELLTDPGVNGMARDVVLSDAMMGYLHFIANIPVKGTRWLYSSKPYALATPPLSVINQWQLALDKGQLPTFVAGLAPQHPQYAAMHESLLALLCDTKPWPQLTGKATLRPGQWSNDVPALREILQRTGMLDGGPKITLPGDDTPTDAVVSPSAVTVETAETKPMDKQTTSRSKPAPAVRAAYDNELVEAVKRFQAWQGLGADGAIGPATRDWLNVTPAQRAGVLALNIQRLRLLPTELSTGIMVNIPAYSLVYYQNGNQVLDSRVIVGRPDRKTPMMSSALNNVVVNPPWNVPPTLARKDILPKVRNDPGYLESHGYTVMRGWNSREAIDPWQVDWSTITASNLPFRFQQAPGPRNSLGRYKFNMPSSEAIYLHDTPNHNLFKRDTRALSSGCVRVNKASDLANMLLQDAGWNDKRISDALKQGDTRYVNIRQSIPVNLYYLTAFVGADGRTQYRTDIYNYDLPARSSSQIVSKAEQLIR
notes: LdtD (formerly YcbB), LD-transpeptidase of Escherichia coli; Printed as 'untagged LdtD'; source: purified
